In patent publication US20050153381A1, “Immunocapture of mitochondrial protein complexes” (priority 2002, published 2005):

Tested on: Complex IV subunits and interacting proteins
Experiment: Mass spectrometric identification of proteins immunocaptured with Complex IV (Tables 9, 10)
Details: Complex IV immunocaptured from bovine heart mitochondria; for Observed chymotryptic % cov / Observed tryptic % cov: LC-MS/MS; for Observed chymotryptic % cov: chymotrypsin digest; for Observed tryptic % cov: trypsin digest; for Total cov.: trypsin and chymotrypsin combined

Substance	Observed chymotryptic % cov	Observed tryptic % cov	Total cov.
VIIa H (FQNRVREKQKLFQEDNDIPLYLKGGIVDNILYRVTMTLCLGGTVYSLYSLGWASFPRN; UniProt P24310 22-79, looked up)	46%	38%	50%
VIa-H	65%	42%	74%
